The supplement of paper PMC4604168 (melanoma cell lines)
Some of the results follow. Many values rest on one well or one pass, so single values are uncertain.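 The apoptosis fraction was the count of cleaved-PARP antibody-stained nuclei relative to all DNA-stained nuclei, imaged in 1,536-well plates. Screening doses were set so most cells survived, and baseline and induced cleaved-PARP levels vary greatly across cell lines.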

tested on: COLO800; test: cleaved PARP positive nuclei fraction relative to DMSO control; melanoma cells; higher = more apoptosis; conditions: library dose: low library concentration; 72 h

Compound	cleaved PARP positive nuclei fraction [%]
COc1cc([C@@H]2c3cc4c(cc3[C@@H](O[C@@H]3O[C@@H]5CO[C@@H](C)O[C@H]5[C@H](O)[C@H]3O)[C@H]3COC(=O)[C@H]23)OCO4)cc(OC)c1O [etoposide] + C[As](C)SC[C@H](NC(=O)CC[C@H](N)C(=O)O)C(=O)NCC(=O)O [Darinaparsin] (first compound 0.02 µM, partner dose 0.4 µM)	106
C[As](C)SC[C@H](NC(=O)CC[C@H](N)C(=O)O)C(=O)NCC(=O)O [Darinaparsin] + Oc1cc(-c2nc(-c3ccccc3)[nH]c2-c2ccncc2)ccc1Cl [L779450] (first compound 0.4 µM, partner dose 0.2 µM)	48.1
N.N.[Cl][Pt][Cl] [cisplatin] + Oc1cc(-c2nc(-c3ccccc3)[nH]c2-c2ccncc2)ccc1Cl [L779450] (first compound 1.6 µM, partner dose 0.2 µM)	32.4
Cc1nc(Nc2ncc(C(=O)Nc3c(C)cccc3Cl)s2)cc(N2CCN(CCO)CC2)n1 [dasatanib] + O=C(Oc1ccc([N+](=O)[O-])cc1)N1CCC(C(O)(c2ccc3c(c2)OCO3)c2ccc3c(c2)OCO3)CC1 [JZL184] (first compound 0.004 µM, partner dose 1 µM)	162
CC(=O)O[C@@]12CO[C@@H]1C[C@H](O)[C@@]1(C)C(=O)[C@H](O)C3=C(C)[C@@H](OC(=O)[C@H](O)[C@@H](NC(=O)OC(C)(C)C)c4ccccc4)C[C@@](O)([C@@H](OC(=O)c4ccccc4)[C@H]21)C3(C)C [Docetaxel] + C/C(O)=C(\C#N)C(=O)Nc1cc(Br)ccc1Br [LFM-A13] (first compound 0.0001 µM, partner dose 2 µM)	584
C[C@]12O[C@H](C[C@]1(O)CO)n1c3ccccc3c3c4c(c5c6ccccc6n2c5c31)CNC4=O [Lestaurtinib] + Cc1nc(Nc2ncc(C(=O)Nc3c(C)cccc3Cl)s2)cc(N2CCN(CCO)CC2)n1 [dasatanib] (first compound 0.004 µM, partner dose 0.004 µM)	100
C[C@]12O[C@H](C[C@]1(O)CO)n1c3ccccc3c3c4c(c5c6ccccc6n2c5c31)CNC4=O [Lestaurtinib] + CCc1ccc(CCOc2ccc(CC3SC(=O)NC3=O)cc2)nc1 [pioglitazone] (first compound 0.004 µM, partner dose 2 µM)	105
C[As](C)SC[C@H](NC(=O)CC[C@H](N)C(=O)O)C(=O)NCC(=O)O [Darinaparsin] + Cn1cc(/C=C2\C(=O)Nc3cccnc32)c2ccccc21 [GW441756] (first compound 0.4 µM, partner dose 0.4 µM)	74.8
O=C(CCCCCCC(=O)Nc1ccccc1)NO [vorinostat] + O=C(Oc1ccc([N+](=O)[O-])cc1)N1CCC(C(O)(c2ccc3c(c2)OCO3)c2ccc3c(c2)OCO3)CC1 [JZL184] (first compound 0.08 µM, partner dose 1 µM)	200
C=CCn1c(=O)c2cnc(Nc3ccc(N4CCN(C)CC4)cc3)nc2n1-c1cccc(C(C)(C)O)n1 + C/C(O)=C(\C#N)C(=O)Nc1cc(Br)ccc1Br [LFM-A13] (first compound 0.02 µM, partner dose 2 µM)	108
Cc1cc(SCc2sc(-c3ccc(C(F)(F)F)c(F)c3)nc2C)ccc1OCC(=O)O + COc1cc2ncnc(Nc3ccc(Oc4ccccc4)cc3)c2cc1OC [SrcI1] (first compound 2 µM, partner dose 2 µM)	147
Cn1cc(C2=C(c3cn(C4CCN(Cc5ccccn5)CC4)c4ccccc34)C(=O)NC2=O)c2ccccc21 [Enzastaurin] + CC(=O)O[C@@]12CO[C@@H]1C[C@H](O)[C@@]1(C)C(=O)[C@H](O)C3=C(C)[C@@H](OC(=O)[C@H](O)[C@@H](NC(=O)OC(C)(C)C)c4ccccc4)C[C@@](O)([C@@H](OC(=O)c4ccccc4)[C@H]21)C3(C)C [Docetaxel] (first compound 0.8 µM, partner dose 0.0001 µM)	359
O=C(/C=C/c1cccnc1)NCCCCC1CCN(C(=O)c2ccccc2)CC1 + C[As](C)SC[C@H](NC(=O)CC[C@H](N)C(=O)O)C(=O)NCC(=O)O [Darinaparsin] (first compound 0.01 µM, partner dose 0.4 µM)	290
C#Cc1cccc(Nc2ncnc3cc(OCCOC)c(OCCOC)cc23)c1 [erlotinib] + Cc1cc(SCc2sc(-c3ccc(C(F)(F)F)c(F)c3)nc2C)ccc1OCC(=O)O [GW0742] (first compound 0.8 µM, partner dose 2 µM)	67.7
C[As](C)SC[C@H](NC(=O)CC[C@H](N)C(=O)O)C(=O)NCC(=O)O [Darinaparsin] + COc1ccc(-c2ccc3c(N4CCOCC4)nc(N4C[C@@H](C)O[C@@H](C)C4)nc3n2)cc1CO [KU0063794] (first compound 0.4 µM, partner dose 0.02 µM)	99.2
Cn1cc(C2=C(c3cn(C4CCN(Cc5ccccn5)CC4)c4ccccc34)C(=O)NC2=O)c2ccccc21 [Enzastaurin] + C[C@@H](Oc1cc(-c2cnn(C3CCNCC3)c2)cnc1N)c1c(Cl)ccc(F)c1Cl [Crizotinib] (first compound 0.8 µM, partner dose 0.2 µM)	41.5
COc1ccc(C2=N[C@@H](c3ccc(Cl)cc3)[C@@H](c3ccc(Cl)cc3)N2C(=O)N2CCNC(=O)C2)c(OC(C)C)c1 [Nutlin-3] + O=C(Oc1ccc([N+](=O)[O-])cc1)N1CCC(C(O)(c2ccc3c(c2)OCO3)c2ccc3c(c2)OCO3)CC1 [JZL184] (first compound 0.1 µM, partner dose 1 µM)	85.3

Single values from the list.
cleaved PARP positive nuclei fraction [%] with C[As](C)SC[C@H](NC(=O)CC[C@H](N)C(=O)O)C(=O)NCC(=O)O [Darinaparsin] + Cn1cc(/C=C2\C(=O)Nc3cccnc32)c2ccccc21 [GW441756] (first compound 0.4 µM, partner dose 0.4 µM) reads 74.8
cleaved PARP positive nuclei fraction [%] with N.N.[Cl][Pt][Cl] [cisplatin] + Oc1cc(-c2nc(-c3ccccc3)[nH]c2-c2ccncc2)ccc1Cl [L779450] (first compound 1.6 µM, partner dose 0.2 µM) reads 32.4
